Taken from: PubChem BioAssay AID504774 (Drosophila RNAi Screening Center, 2011)

Aim: 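Fly genes whose loss alters survival after alkylation damage to DNA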 (primary screen)
Cell system: Drosophila Kc167 cells
Reagents: long dsRNA against Drosophila genes, about 0.25 µg dsRNA per well
Timing: about 6 days: 3 days knock-down, then 3 days with or without MMS
Challenge: methyl methanesulphonate 0.004% (w/v) for 3 days after knock-down
Measured: 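Viability in wells given MMS, read as ATP luminescence, normalised by quantiles plate by plate and averaged across replicates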
Scale: mean viability with MMS: higher = more surviving cells after MMS
In all, the deposit lists about 23,000 reagents; shown is an unselected part of those that have a named target and a result. 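Values are quantile-normalised luminescence on an arbitrary scale; higher means more cells surviving MMS.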 Names joined by + are all predicted targets of the reagent. Further read-outs or replicates are left out here.

With Hrb87F (GeneID 48535) [DRSC16708], what does the deposit list?
mean viability with MMS: 3.40e6

For CG18233 (GeneID 40025) [DRSC10308], what was measured?
mean viability with MMS: 3.58e6

For CG6805 (GeneID 36911) [DRSC07011], what was measured?
mean viability with MMS: 3.48e6

Which result is listed for CG31686 (retired record) (GeneID 318885) [DRSC00102]?
mean viability with MMS: 3.50e6

What is on record for Ran-like (GeneID 39666) [DRSC10918]?
mean viability with MMS: 3.60e6

What did the screen give for CG1324 (GeneID 33060) [DRSC20496]?
mean viability with MMS: 3.45e6

For Marc (GeneID 36014) [DRSC06614], what was measured?
mean viability with MMS: 3.46e6

What did the screen give for baz (GeneID 32703) [DRSC20309]?
mean viability with MMS: 3.55e6

For CG15812 (GeneID 38379) [DRSC08479], what was measured?
mean viability with MMS: 3.46e6

What is on record for PI31 (GeneID 36277) [DRSC07306]?
mean viability with MMS: 3.36e6

With fkh (GeneID 43383) [DRSC16949], what does the deposit list?
mean viability with MMS: 3.72e6

What is on record for CG11666 (GeneID 50121) [DRSC22379]?
mean viability with MMS: 3.45e6

What did the screen give for WDR79 (GeneID 33865) [DRSC03159]?
mean viability with MMS: 3.38e6

With Tsp42El (GeneID 35622) [DRSC06186], what was measured?
mean viability with MMS: 3.59e6

For Nmnat (GeneID 42987) [DRSC14644], what does the deposit list?
mean viability with MMS: 3.44e6

With C901 (GeneID 32032) [DRSC19351], what was measured?
mean viability with MMS: 3.67e6

What is on record for CG5704 (GeneID 48613) [DRSC08572]?
mean viability with MMS: 3.55e6

Which result is listed for Arl6 (GeneID 37236) [DRSC07031]?
mean viability with MMS: 3.70e6

Which result is listed for CG13531 (GeneID 37627) [DRSC04173]?
mean viability with MMS: 3.46e6

For CG7025 (GeneID 34042) [DRSC03002], what was measured?
mean viability with MMS: 3.45e6

With spen (GeneID 44205) [DRSC00839], how do the results read?
mean viability with MMS: 3.41e6

Which result is listed for Sbf (GeneID 41427) [DRSC16852]?
mean viability with MMS: 3.88e6

With CG11961 (GeneID 37221) [DRSC06099], how do the results read?
mean viability with MMS: 3.69e6

With CG18745 (GeneID 59141) [DRSC15382], what does the deposit list?
mean viability with MMS: 3.58e6

How did the screen score Blos4 (GeneID 39219) [DRSC10151]?
mean viability with MMS: 3.62e6

With retn (GeneID 45976) [DRSC04679], what was measured?
mean viability with MMS: 3.64e6

With CG14147 (GeneID 39227) [DRSC10149], what does the deposit list?
mean viability with MMS: 3.65e6

With Pkn + Tsen15 [DRSC21969], what does the deposit list?
mean viability with MMS: 3.35e6

What is on record for CG33223 (GeneID 2768867) [DRSC17572]?
mean viability with MMS: 3.49e6

For fra (GeneID 36377) [DRSC07621], what does the deposit list?
mean viability with MMS: 3.48e6

How did the screen score atl (GeneID 42934) [DRSC16089]?
mean viability with MMS: 3.43e6

How did the screen score CG14314 (GeneID 42179) [DRSC14793]?
mean viability with MMS: 3.65e6

Which result is listed for RpL32 (GeneID 43573) [DRSC16835]?
mean viability with MMS: 2.90e6

What is on record for Muc14A (GeneID 318097) [DRSC23264]?
mean viability with MMS: 3.40e6

What is on record for ph-p (GeneID 31181) [DRSC18820]?
mean viability with MMS: 3.69e6

Laid out differently: results already given
CG11666 (GeneID 50121) [DRSC22379]
- mean viability with MMS: 3.45e6

WDR79 (GeneID 33865) [DRSC03159]
- mean viability with MMS: 3.38e6
